Reference: article PMC12443970
Results are given in words; binding and its absence hold for the method and conditions named. In cells and extracts the contact can be indirect. A yes stands for co-enrichment or nearness to the bait. Other partners may have been found.

Target: T1, recombinant PDK1 (3-phosphoinositide-dependent protein kinase 1), stably expressed in Jurkat cells (UniProt O15530)
T1 sequence: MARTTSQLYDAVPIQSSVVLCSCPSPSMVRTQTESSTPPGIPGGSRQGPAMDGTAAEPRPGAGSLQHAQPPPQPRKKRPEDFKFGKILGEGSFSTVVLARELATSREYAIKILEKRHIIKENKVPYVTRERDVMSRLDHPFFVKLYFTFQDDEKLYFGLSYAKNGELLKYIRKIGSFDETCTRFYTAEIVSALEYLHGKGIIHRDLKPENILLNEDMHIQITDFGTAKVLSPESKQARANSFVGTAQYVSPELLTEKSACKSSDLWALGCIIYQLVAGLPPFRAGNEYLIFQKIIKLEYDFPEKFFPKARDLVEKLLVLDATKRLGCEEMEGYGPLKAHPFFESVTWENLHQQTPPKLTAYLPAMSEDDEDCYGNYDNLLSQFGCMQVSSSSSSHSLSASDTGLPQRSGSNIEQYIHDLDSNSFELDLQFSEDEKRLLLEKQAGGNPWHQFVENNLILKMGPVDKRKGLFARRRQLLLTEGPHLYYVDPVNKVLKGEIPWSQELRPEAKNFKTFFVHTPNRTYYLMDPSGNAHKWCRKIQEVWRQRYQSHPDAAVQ
Test: affinity purification with mass spectrometry; recombinant PDK1 purified from stably expressing Jurkat cells via the tag pull-down method; copurified proteins visualized by silver staining and identified by mass fingerprinting

B1: PANK4 (pantothenate kinase 4), copurified from Jurkat cells (protein, UniProt Q9NVE7 1-773)
chain: MAECGASGSGSSGDSLDKSITLPPDEIFRNLENAKRFAIDIGGSLTKLAYYSTVQHKVAKVRSFDHSGKDTEREHEPPYEISVQEEITARLHFIKFENTYIEACLDFIKDHLVNTETKVIQATGGGAYKFKDLIEEKLRLKVDKEDVMTCLIKGCNFVLKNIPHEAFVYQKDSDPEFRFQTNHPHIFPYLLVNIGSGVSIVKVETEDRFEWVGGSSIGGGTFWGLGALLTKTKKFDELLHLASRGQHSNVDMLVRDVYGGAHQTLGLSGNLIASSFGKSATADQEFSKEDMAKSLLHMISNDIGQLACLHARLHSLDRVYFGGFFIRGHPVTMRTITYSINFFSKGEVQALFLRHEGYLGAIGAFLKGAEQDNPNQYSWGENYAGSSGLMSASPELGPAQRARSGTFDLLEMDRLERPLVDLPLLLDPPSYVPDTVDLTDDALARKYWLTCFEEALDGVVKRAVASQPDSVDAAERAEKFRQKYWNKLQTLRQQPFAYGTLTVRSLLDTREHCLNEFNFPDPYSKVKQRENGVALRCFPGVVRSLDALGWEERQLALVKGLLAGNVFDWGAKAVSAVLESDPYFGFEEAKRKLQERPWLVDSYSEWLQRLKGPPHKCALIFADNSGIDIILGVFPFVRELLLRGTEVILACNSGPALNDVTHSESLIVAERIAGMDPVVHSALQEERLLLVQTGSSSPCLDLSRLDKGLAALVRERGADLVVIEGMGRAVHTNYHAALRCESLKLAVIKNAWLAERLGGRLFSVIFKYEVPAE
Question: With B1 as the binder, how does the binding read?
Answer: The binding was “binds”.
